# Structures can show the parent of a compound that is named as a salt. The list shows a part of the results. Repeats are few or missing, and single values can be far off.
# System: A2780
# Test: cell growth inhibition ratio vs untreated control (CCK8); higher = stronger inhibition of cell viability
# Details: 10 µM; 48 h
# Procedure: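 Natural product library (Topscience) screened at 10 µM final concentration for 48 h on ovarian cancer A2780 cells and patient-derived ovarian cancer cells (PDC) in 96-well plates; viability read by CCK8 and reported as inhibition ratio (%) relative to untreated control. Single-dose primary screen.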
row,Structure (SMILES),cell growth inhibition ratio
1,C=C[C@H]1CN2CC[C@H]1C[C@@H]2[C@@H](O)c1ccnc2ccccc12 [Cinchonine],10.5%
2,CCO[C@H]1O[C@@H]2O[C@@]3(C)CC[C@H]4[C@H](C)CC[C@@H]([C@H]1C)[C@@]24OO3 [Arteether],30.5%
3,CN1[C@@H]2CC[C@H]1C[C@@H](OC(=O)[C@H](CO)c1ccccc1)C2 [L-Hyoscyamine],28.4%
4,O=c1ccc2cc(O[C@@H]3O[C@H](CO)[C@@H](O)[C@H](O)[C@H]3O)c(O)cc2o1 [Esculin],-0.456%
5,CC1=C2C(=O)[C@H]3[C@@H](CC=C4C[C@@H](O)CC[C@@]43C)[C@@H]2CC[C@]12O[C@@H]1C[C@H](C)CN[C@H]1[C@H]2C [Jervine],15%
6,O=C1C[C@@H]2OCC=C3CN4CC[C@]56c7ccccc7N1[C@H]5[C@H]2[C@H]3C[C@H]46 [Strychnine],11.6%
7,CN1[C@@H]2CC[C@H]1C[C@@H](OC(=O)C(CO)c1ccccc1)C2 (stereo not given in full) [Atropine],14.8%
8,O=C(/C=C/c1ccccc1)OC[C@H]1O[C@@H](O[C@@H]2OC=C[C@H]3[C@H](O)[C@@H]4O[C@]4(CO)[C@@H]23)[C@H](O)[C@@H](O)[C@@H]1O [Picroside I],-3.56%
9,CCC1=CC2CN3CCc4c([nH]c5ccccc45)C(C(=O)OC)(C2)C13 (stereo not given) [Catharanthine sulfate],27.3%
10,Cc1c([C@H](C)[C@@H]2NC[C@@H](C)C[C@H]2O)ccc2c1C[C@H]1[C@H]2CC=C2C[C@@H](O)CC[C@@]21C [Veratramine],46.9%
11,C[C@@H]1CC[C@@]2(OC1)O[C@H]1C[C@H]3[C@@H]4CC=C5C[C@@H](O[C@@H]6O[C@H](CO)[C@@H](O[C@@H]7O[C@@H](C)[C@H](O)[C@@H](O)[C@H]7O)[C@H](O)[C@H]6O[C@@H]6O[C@@H](C)[C@H](O)[C@@H](O)[C@H]6O)CC[C@]5(C)[C@H]4CC[C@]3(C)[C@H]1[C@@H]2C [Dioscin],93.4%
12,C/C=C/c1cc(OC)c(OC)cc1OC [alpha-Asarone],8.99%
13,CC1=C2C[C@H]3[C@@H](CC=C4C[C@@H](O)CC[C@@]43C)[C@@H]2CC[C@]12O[C@@H]1C[C@H](C)CN[C@H]1[C@H]2C [Cyclopamine],9.26%
14,CCCCCCCCC(=O)NCc1ccc(O)c(OC)c1 [Nonivamide],-4%
15,C=C[C@H]1CN2CC[C@H]1C[C@H]2[C@H](O)c1ccnc2ccccc12 [Cinchonidine],-13.5%
16,CN(CC(=O)O)C(=N)NP(=O)(O)O [Creatine phosphate disodium salt],-3.74%
17,CNCC(O)c1ccc(O)cc1 (stereo not given) [Synephrine],16%
18,C[C@@H]1CC[C@@]2(OC1)O[C@H]1[C@@H](O)[C@H]3[C@@H]4CC[C@H]5C[C@@H](O[C@@H]6O[C@H](CO)[C@H](O[C@@H]7O[C@H](CO)[C@@H](O)[C@H](O[C@@H]8OC[C@@H](O)[C@H](O)[C@H]8O)[C@H]7O[C@@H]7O[C@H](CO)[C@H](O)[C@H](O[C@@H]8O[C@H](CO)[C@@H](O)[C@H](O)[C@H]8O)[C@H]7O)[C@H](O)[C@H]6O)[C@H](O)C[C@]5(C)[C@H]4CC[C@]3(C)[C@H]1[C@@H]2C [Digitonin],91.8%
19,CC1C(=O)OC2C(O)C34C5OC(=O)C3(OC3OC(=O)C(O)C34C(C(C)(C)C)C5O)C12O (stereo not given) [Ginkgolide C],22.1%
20,CN[C@@H]1[C@@H](O)[C@@H](O[C@@H]2[C@@H](O)[C@H](O[C@H]3O[C@H]([C@@H](C)O)[C@@H](O)[C@H](O)[C@H]3N)[C@@H](N)C[C@H]2N)OC[C@]1(C)O [Geneticin (G418 Sulfate)],7.08%

# Quoted from the listing:
# For cell growth inhibition ratio, C/C=C/c1cc(OC)c(OC)cc1OC [alpha-Asarone] is listed with 8.99%
# For cell growth inhibition ratio, CN[C@@H]1[C@@H](O)[C@@H](O[C@@H]2[C@@H](O)[C@H](O[C@H]3O[C@H]([C@@H](C)O)[C@@H](O)[C@H](O)[C@H]3N)[C@@H](N)C[C@H]2N)OC[C@]1(C)O [Geneticin (G418 Sulfate)] is listed with 7.08%
# For cell growth inhibition ratio, Cc1c([C@H](C)[C@@H]2NC[C@@H](C)C[C@H]2O)ccc2c1C[C@H]1[C@H]2CC=C2C[C@@H](O)CC[C@@]21C [Veratramine] is listed with 46.9%

# The list continues:

row,Structure (SMILES),cell growth inhibition ratio
1,C[C@@H]1O[C@@H](O[C@H]2C[C@@H](O)[C@]3(CO)[C@H]4[C@H](O)C[C@]5(C)[C@@H](C6=CC(=O)OC6)CC[C@]5(O)[C@@H]4CC[C@]3(O)C2)[C@H](O)[C@H](O)[C@H]1O [Ouabain octahydrate],87.7%
2,CCN1C[C@]2(COC)[C@H](O)C[C@H](OC)[C@@]34[C@@H]5C[C@@]6(O)[C@H](OC(=O)c7ccccc7)[C@@H]5[C@@](OC(C)=O)([C@@H]([C@H](OC)[C@H]23)[C@@H]14)[C@@H](O)[C@@H]6OC [Aconitine],13.7%
3,CC(=O)O[C@H]1[C@H]2[C@@H](OC(=O)Cc3ccccc3)[C@@H](C)C[C@]2(OC(C)=O)C(=O)/C(C)=C/[C@@H]2[C@H](CC[C@@]13CO3)C2(C)C [Euphorbiasteroid],30.9%
4,COc1cc([C@@H]2c3cc4c(cc3[C@H](O)[C@H]3COC(=O)[C@@H]23)OCO4)cc(OC)c1OC [Picropodophyllin (PPP)],89.1%
5,CC(=O)OCC1=C(C(=O)O)N2C(=O)[C@@H](N)[C@H]2SC1 [7-Aminocephalosporanic acid],-22%
6,O=C1C[C@@H]2OCC=C3CN4CC[C@]56c7ccccc7N1[C@H]5[C@H]2[C@H]3C[C@H]46 [Strychnine Sulfate],15.7%
7,O=C1CCC[C@@H]2[C@H]3CCCN4CCC[C@@H](CN12)[C@@H]34 [(+)-Matrine],4.48%
8,C[C@]12CC[C@H](O)CC1=CC[C@@H]1[C@@H]2CC[C@]2(C)C(=O)CC[C@@H]12 [Dehydroepiandrosterone],3.82%
9,COc1cc(C(=O)O[C@H]2[C@@H]3C=CO[C@@H](O[C@@H]4O[C@H](CO)[C@@H](O)[C@H](O)[C@H]4O)[C@@H]3[C@@]3(CO)O[C@@H]23)ccc1O [Picroside II],13.6%
10,COC1=C[C@@H]2[C@@H]3Cc4ccc(OC)c(O)c4[C@]2(CCN3C)CC1=O [Sinomenine],6.36%
11,CNC1CC(N)C(O)C(OC2OC(CO)C(O)C3OC4(OC(C(N)CO)C(O)C(O)C4O)OC23)C1O (stereo not given) [Hygromycin B],24.6%
12,NCCc1ccccc1 [Phenethylamine],12.3%
13,COc1cc([C@@H]2c3cc4c(cc3[C@@H](O)[C@H]3COC(=O)[C@H]23)OCO4)cc(OC)c1O [4'-Demethylepipodophyllotoxin],78.2%
14,N#C/C=C1/C=C[C@@H](O)[C@H](O)[C@H]1O[C@@H]1O[C@H](CO)[C@@H](O)[C@H](O)[C@H]1O [Griffonin],11.5%
15,NCCc1c[nH]c2ccc(O)cc12 [Serotonin hydrochloride],7.36%
16,COc1ccc(Cc2nccc3cc(OC)c(OC)cc23)cc1OC [Papaverine hydrochloride],38.9%
17,COc1cccc2c1cc([N+](=O)[O-])c1c(C(=O)O)cc3c(c12)OCO3 [Aristolochic Acid],9.17%
18,COc1cc2c(cc1OC)[C@@H](Cc1ccc(O)c(Oc3cc4c(cc3OC)CCN(C)[C@@H]4Cc3ccc(O)cc3)c1)N(C)CC2.[O-][Cl+3]([O-])([O-])O [Liensinine Perchlorate],22.9%
19,O=c1ccc2ccc3occc3c2o1 [Isopsoralen],9.39%
20,COc1ccc2c(c1)[nH]c1c(C)nccc12 [Harmine hydrochloride],58.2%

# From the supplement of paper PMC10373366
